Earlier results as cited in patent US20260216215A1, “COMPOSITIONS AND METHODS FOR TREATING OR PREVENTING PAIN OR OTHER DISORDERS” (priority 2022, published 2026).
At least one compound was matched to its structure with a doubt left.

Details: cited from earlier work

CC(C)=C1CC[C@@H](C)CC1=O [PUL, (R)-5-Methyl-2-(1-methylethylidine) cyclohexanone]
Hepatotoxicity: very hepatotoxic
